Source: publication PMC9234224
No constants are given. Whether binding was seen depends on the method and setting. Binding seen in cells or lysates may run through a third protein. Some results given as binding are weak or reduced against the parent protein; the word gives no strength.

By UniProt entry, the sequences of proteins in these tests, tags left out.
UniProt Q86WV6: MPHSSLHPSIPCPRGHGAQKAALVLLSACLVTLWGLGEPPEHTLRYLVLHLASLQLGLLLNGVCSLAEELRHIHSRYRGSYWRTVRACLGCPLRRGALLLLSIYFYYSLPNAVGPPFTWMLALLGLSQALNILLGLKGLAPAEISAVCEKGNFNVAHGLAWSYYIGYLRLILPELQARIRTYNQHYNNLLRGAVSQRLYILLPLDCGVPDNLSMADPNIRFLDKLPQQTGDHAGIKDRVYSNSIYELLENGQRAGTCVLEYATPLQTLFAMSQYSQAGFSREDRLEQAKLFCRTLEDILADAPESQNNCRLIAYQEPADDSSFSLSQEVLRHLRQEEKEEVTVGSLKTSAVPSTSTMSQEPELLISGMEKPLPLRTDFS
UniProt Q99836: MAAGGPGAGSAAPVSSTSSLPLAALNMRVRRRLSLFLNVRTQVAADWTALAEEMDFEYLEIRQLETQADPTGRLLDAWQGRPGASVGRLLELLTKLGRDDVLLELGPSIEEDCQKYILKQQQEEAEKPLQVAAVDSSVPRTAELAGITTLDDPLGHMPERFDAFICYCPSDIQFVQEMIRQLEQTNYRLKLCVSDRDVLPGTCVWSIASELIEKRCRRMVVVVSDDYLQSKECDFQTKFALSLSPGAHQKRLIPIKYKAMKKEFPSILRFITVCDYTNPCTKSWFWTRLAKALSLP
UniProt P05412: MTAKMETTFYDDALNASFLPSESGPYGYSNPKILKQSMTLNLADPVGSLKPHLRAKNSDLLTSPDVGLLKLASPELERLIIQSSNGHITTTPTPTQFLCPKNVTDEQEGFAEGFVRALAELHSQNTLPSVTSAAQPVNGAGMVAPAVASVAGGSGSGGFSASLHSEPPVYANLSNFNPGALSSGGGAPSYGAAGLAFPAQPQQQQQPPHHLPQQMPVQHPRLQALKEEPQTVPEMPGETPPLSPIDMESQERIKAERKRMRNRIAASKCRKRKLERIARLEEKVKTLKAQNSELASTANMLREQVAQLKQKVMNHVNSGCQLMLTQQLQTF

Legend:
[1] = target: Stimulator of interferon response CGAMP interactor 1 (STING1) (human (endogenous in THP1)) (UniProt Q86WV6); test: co-IP; endogenous proteins from THP1 cells, untreated or treated with LPS (500 ng/mL) and 3'3'-cGAMP (10 ug/mL) for 6 h; lysed in RIPA buffer at 4°C, specific antibodies (3-5 ug/mL) with protein A agarose beads, 2 h or overnight at 4°C, washed with PBS; blot
[2] = target: T1, interferon regulatory factor 3 (IRF3) (human (endogenous in THP1)) (UniProt Q14653); test: as above
T1 sequence: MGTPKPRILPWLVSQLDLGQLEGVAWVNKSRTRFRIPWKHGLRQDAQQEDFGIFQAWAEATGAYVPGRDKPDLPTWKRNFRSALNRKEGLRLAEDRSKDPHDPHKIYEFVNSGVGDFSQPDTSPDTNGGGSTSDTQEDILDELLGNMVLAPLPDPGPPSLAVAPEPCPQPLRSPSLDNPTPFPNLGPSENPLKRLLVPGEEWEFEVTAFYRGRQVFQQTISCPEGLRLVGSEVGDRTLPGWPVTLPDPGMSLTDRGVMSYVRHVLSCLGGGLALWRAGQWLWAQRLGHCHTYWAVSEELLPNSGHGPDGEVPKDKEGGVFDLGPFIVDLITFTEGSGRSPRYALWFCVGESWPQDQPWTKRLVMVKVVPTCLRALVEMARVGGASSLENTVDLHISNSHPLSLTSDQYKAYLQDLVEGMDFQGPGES

| Substance | binding [1] | binding [2] |
| --- | --- | --- |
| myeloid differentiation marker 88 (MYD88) (from UniProt Q99836 1-296) | binds |  |
| transcription factor JUN (from UniProt P05412 1-331) |  | binds |
